## Results of single-concentration screens

By UniProt entry, the sequences of proteins in these tests, tags left out.
UniProt P9WFT3, whole entry: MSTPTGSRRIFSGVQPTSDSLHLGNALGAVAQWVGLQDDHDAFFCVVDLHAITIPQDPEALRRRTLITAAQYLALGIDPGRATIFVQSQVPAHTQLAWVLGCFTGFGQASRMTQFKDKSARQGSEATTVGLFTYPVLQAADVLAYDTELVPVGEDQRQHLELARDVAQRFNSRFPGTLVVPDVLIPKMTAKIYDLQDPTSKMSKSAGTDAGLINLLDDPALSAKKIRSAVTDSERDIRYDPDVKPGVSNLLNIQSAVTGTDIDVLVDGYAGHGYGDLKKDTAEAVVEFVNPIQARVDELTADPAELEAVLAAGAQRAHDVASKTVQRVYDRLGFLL
UniProt P9WPC5, whole entry: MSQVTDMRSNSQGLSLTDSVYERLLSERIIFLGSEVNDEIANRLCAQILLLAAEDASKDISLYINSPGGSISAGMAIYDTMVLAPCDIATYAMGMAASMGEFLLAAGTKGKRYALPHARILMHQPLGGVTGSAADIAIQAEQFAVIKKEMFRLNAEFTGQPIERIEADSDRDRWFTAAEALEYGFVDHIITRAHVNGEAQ
UniProt P9WPC3, whole entry partner: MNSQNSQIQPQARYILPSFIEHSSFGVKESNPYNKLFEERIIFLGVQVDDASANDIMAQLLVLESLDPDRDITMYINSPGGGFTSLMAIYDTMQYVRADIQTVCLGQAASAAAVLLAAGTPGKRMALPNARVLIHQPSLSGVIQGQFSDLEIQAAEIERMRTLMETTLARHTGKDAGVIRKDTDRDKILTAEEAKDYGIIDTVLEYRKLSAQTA
UniProt P9WNZ1, whole entry: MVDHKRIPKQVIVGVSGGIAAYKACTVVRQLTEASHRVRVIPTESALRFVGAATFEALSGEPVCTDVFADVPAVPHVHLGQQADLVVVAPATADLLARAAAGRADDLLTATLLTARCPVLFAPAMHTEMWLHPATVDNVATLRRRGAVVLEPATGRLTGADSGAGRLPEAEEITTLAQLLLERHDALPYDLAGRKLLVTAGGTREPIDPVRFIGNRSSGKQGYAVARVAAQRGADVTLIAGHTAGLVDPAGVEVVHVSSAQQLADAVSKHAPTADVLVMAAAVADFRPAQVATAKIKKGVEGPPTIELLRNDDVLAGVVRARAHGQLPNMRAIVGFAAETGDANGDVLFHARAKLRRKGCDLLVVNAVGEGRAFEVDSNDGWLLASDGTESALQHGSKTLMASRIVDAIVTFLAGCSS
UniProt I6X8D2, whole entry: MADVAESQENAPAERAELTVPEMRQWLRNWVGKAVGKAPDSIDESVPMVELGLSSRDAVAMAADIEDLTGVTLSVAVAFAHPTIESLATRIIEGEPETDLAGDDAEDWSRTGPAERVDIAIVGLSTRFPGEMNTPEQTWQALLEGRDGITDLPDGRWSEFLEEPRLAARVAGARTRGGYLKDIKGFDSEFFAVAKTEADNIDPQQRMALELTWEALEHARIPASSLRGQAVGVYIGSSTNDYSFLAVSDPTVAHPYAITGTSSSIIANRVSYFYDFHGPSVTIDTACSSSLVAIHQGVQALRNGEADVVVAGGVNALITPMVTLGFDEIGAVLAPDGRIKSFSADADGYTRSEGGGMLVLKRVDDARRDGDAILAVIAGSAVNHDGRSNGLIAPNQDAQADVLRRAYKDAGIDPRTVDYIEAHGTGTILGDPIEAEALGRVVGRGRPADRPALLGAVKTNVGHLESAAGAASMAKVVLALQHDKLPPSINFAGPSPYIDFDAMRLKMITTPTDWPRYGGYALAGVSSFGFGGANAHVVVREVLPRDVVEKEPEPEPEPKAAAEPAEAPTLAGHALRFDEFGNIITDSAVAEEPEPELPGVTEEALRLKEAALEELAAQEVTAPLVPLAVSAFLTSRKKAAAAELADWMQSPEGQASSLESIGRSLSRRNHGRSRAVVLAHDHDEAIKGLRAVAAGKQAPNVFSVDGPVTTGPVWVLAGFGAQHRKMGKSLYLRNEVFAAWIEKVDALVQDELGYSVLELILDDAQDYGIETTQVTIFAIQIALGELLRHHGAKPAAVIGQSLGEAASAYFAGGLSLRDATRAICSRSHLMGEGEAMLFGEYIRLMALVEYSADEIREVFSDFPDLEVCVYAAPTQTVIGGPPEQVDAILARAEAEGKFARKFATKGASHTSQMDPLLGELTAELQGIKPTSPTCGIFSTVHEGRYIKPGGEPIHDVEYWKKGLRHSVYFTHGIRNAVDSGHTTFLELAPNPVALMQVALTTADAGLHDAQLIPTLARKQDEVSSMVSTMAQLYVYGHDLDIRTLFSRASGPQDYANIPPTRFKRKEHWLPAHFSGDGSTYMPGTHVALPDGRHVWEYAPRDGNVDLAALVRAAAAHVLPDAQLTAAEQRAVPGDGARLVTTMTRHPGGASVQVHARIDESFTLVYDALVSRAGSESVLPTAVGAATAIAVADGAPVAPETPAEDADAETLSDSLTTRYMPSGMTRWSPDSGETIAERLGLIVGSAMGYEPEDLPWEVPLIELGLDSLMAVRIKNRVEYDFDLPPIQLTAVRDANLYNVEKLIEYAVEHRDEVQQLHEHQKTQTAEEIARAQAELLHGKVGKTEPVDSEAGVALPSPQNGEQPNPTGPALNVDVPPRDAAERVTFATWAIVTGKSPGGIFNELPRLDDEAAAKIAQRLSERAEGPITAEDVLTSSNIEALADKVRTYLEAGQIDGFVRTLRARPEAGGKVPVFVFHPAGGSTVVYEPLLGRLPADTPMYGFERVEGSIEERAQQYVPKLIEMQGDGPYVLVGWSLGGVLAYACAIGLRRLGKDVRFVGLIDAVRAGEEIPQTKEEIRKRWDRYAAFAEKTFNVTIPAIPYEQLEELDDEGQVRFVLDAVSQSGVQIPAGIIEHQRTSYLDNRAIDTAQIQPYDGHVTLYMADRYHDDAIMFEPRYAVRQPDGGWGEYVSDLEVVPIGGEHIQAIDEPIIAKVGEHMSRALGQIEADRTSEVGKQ

MtTrpRS: 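Tryptophan-tRNA ligase, Mycobacterium tuberculosis (UniProt P9WFT3). Enzyme assay of tryptophanyl-tRNA synthetase; the read-out is not stated. Tested at 10 µM. Direction is not recorded; retested compounds ran higher, which suggests that high means inhibition. Size under these conditions: about 65,000 compounds, about 64 of them at 50% or above in at least one test.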
Toxoplasma: 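Assay of Toxoplasma gondii numbers, read through their beta-galactosidase reporter with a colour substrate. Compounds at 10 µM. Higher reads as fewer parasites (inferred from which compounds were picked for retests). About 67,000 compounds were tested under these conditions; 0.38% (about 260) showed 50% or more at least once.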
ClpP1P2: 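ClpP1P2, Mycobacterium tuberculosis (UniProt P9WPC5 and UniProt P9WPC3). Protease assay of ClpP1P2, read by the AMC dye that it sets free. Concentration: 50 µM. Direction is inferred from only a few compounds that gave an IC50; most scored high, so higher reads as stronger inhibition. Most other retested compounds had strongly negative values. Of about 69,000 compounds tested this way, about 10 (0.015%) reached 50% or more in at least one test.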
CoaBC: 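Enzyme assay of CoaBC with a phosphate dye (Biomol Green) read at 650 nm. Target: Coenzyme A biosynthesis protein CoaBC, Mycobacterium tuberculosis (UniProt P9WNZ1). Concentration: 30 µM. Direction is inferred from only a few compounds that gave an IC50; most scored high, so higher reads as stronger inhibition. Most strong results did not repeat in a second test. Size under these conditions: about 67,000 compounds, about 40 of them at 50% or above in at least one test.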
Pks13 thioesterase: 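Polyketide synthase Pks13, Mycobacterium tuberculosis (UniProt I6X8D2). Enzyme assay of the thioesterase domain of polyketide synthase 13; the read-out is not stated. Tested at 30 µM. Higher reads as stronger inhibition (inferred from which compounds were picked for retests). About 67,000 compounds were tested under these conditions; 0.46% (about 300) showed 50% or more at least once.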

Results are given as percent effect.
The record does not define 0% and 100%; most values in the screen are far below 50% and negative numbers occur (in some assays of this library far below -100).
The compounds are a random part of those screened.

Result for CCOCC1CC2(CCN(C(=O)c3ccccn3)CC2)CO1 (configuration not stated) was MtTrpRS: 1.055%; ClpP1P2: -3.925%; CoaBC: -0.3861%; Pks13 thioesterase: -9.004%. Result for CCOC(=O)[C@]12CCCN(Cc3nccs3)C[C@H]1CN(CCN(C)C)C2 was MtTrpRS: -1.874%; ClpP1P2: 0.36%; CoaBC: 0.1267%; Pks13 thioesterase: -0.8972%. COc1ccc(-c2noc(CN3CC(n4cc(C)cn4)C3)n2)cc1 read MtTrpRS: -0.1947%; Toxoplasma: 24.47%; ClpP1P2: -26.31%; CoaBC: 1.677%; Pks13 thioesterase: 15.6%. With COCC(=O)N1CCCC1c1cccc(C)c1C (configuration not stated) the screen gave MtTrpRS: -8.081%; Toxoplasma: -3.471%; ClpP1P2: 3.7%; CoaBC: -0.6046%; Pks13 thioesterase: 1.857%. For [H][C@@]12C[C@H](C(=O)Nc3cnccn3)CN(c3ncc(F)cn3)[C@]1([H])CCO2 the result was Toxoplasma: 5.879%. Cc1nn(C)c(C)c1C1CCCN1C(=O)CCNc1ncccn1 (configuration not stated) read MtTrpRS: 0.6823%; Toxoplasma: -5.21%; ClpP1P2: 1.576%; CoaBC: 4.841%; Pks13 thioesterase: -8.63%. With Cc1cc(O)nc(C2CCCN(CCO)C2)n1 (configuration not stated) the screen gave MtTrpRS: -3.825%; Toxoplasma: 4.78%; ClpP1P2: -13.75%; CoaBC: 6.76%; Pks13 thioesterase: 4.974%. Cn1cc(-c2nc(CN3CCOC(Cn4cncn4)C3)cs2)cn1 (configuration not stated) read MtTrpRS: -8.584%; Toxoplasma: 27.31%; ClpP1P2: -28.16%; CoaBC: 1.66%; Pks13 thioesterase: -4.236%.

O=C(C1CCOC1)N1CCN(Cc2ccncc2)c2ncccc2C1 (configuration not stated) gave MtTrpRS: -8.599%; Toxoplasma: 0.5665%; ClpP1P2: -14.24%; CoaBC: 4.809%; Pks13 thioesterase: -14.27%. For CCc1nccn1-c1cncc(C2CCCN2)n1 (configuration not stated) the result was MtTrpRS: -7.091%; ClpP1P2: -7.956%; CoaBC: -4.294%; Pks13 thioesterase: 1.806%. For Cc1cccc(CN2CCc3ncnc(C)c3CC2)n1.O=C(O)C(F)(F)F the result was Toxoplasma: 19.06%. With CC1c2ncc(CNC(=O)C3CC3)n2CCN1Cc1cccnc1 (configuration not stated) the screen gave MtTrpRS: -0.08865%; ClpP1P2: -3.904%; CoaBC: 4.562%; Pks13 thioesterase: -43.03%. With CC(C)CCN1C(=O)CC(N(C)Cc2nc3ccccc3c(=O)[nH]2)C1=O (configuration not stated) the screen gave MtTrpRS: -1.051%; Toxoplasma: -19%; ClpP1P2: -2.927%; CoaBC: 3.586%; Pks13 thioesterase: -11.46%. Result for COc1ccc(CN2CCn3cc(CN4CCN(C)CC4)nc3C2)cc1.O=C(O)C(F)(F)F.O=C(O)C(F)(F)F.O=C(O)C(F)(F)F was Toxoplasma: 0.05379%. For CN(C)C(=O)c1ccc(N2CCC3(CCC(=O)N(CCO)C3)CC2)nc1 the result was MtTrpRS: -0.8227%; Toxoplasma: 2.854%; ClpP1P2: 0.1338%; CoaBC: -2.581%; Pks13 thioesterase: -30.03%. O=c1n(CC2CCCCO2)nc(CC2CCNCC2)n1-c1ccccc1 (configuration not stated) read MtTrpRS: -0.5948%; Toxoplasma: -2.54%; ClpP1P2: 1.314%; CoaBC: 13.64%; Pks13 thioesterase: -29.45%.

Cc1ccsc1CNC(=O)c1ccc(N2CCOC2=O)cc1 gave MtTrpRS: -6.174%; Toxoplasma: -7.203%; ClpP1P2: 12.57%; CoaBC: 10.89%; Pks13 thioesterase: -15%. CC1CCN(c2cncc(CCC3CCCN3)n2)CC1 (configuration not stated) read MtTrpRS: -10.23%; ClpP1P2: 4.081%; CoaBC: 4.731%; Pks13 thioesterase: 1.226%. For COCCCNC(=O)c1ccn(-c2ccc3ccccn23)n1 the result was MtTrpRS: 0.5231%; Toxoplasma: 3.627%; ClpP1P2: 11.79%; CoaBC: 2.941%; Pks13 thioesterase: -5.194%. O=C(Nc1cc(-c2ccccc2)on1)N1CCN(CCO)CC1 read MtTrpRS: -0.3303%; Toxoplasma: -0.4327%; ClpP1P2: -12.57%; CoaBC: 3.23%; Pks13 thioesterase: -5.636%. Result for Cn1nnc2c1CCN(Cc1ccccn1)C2COCc1ccccc1.O=C(O)C(F)(F)F.O=C(O)C(F)(F)F (configuration not stated) was Toxoplasma: 14.67%. Result for Cc1ccc(NC(=O)c2ccc(CC3CC(=O)NC3=O)cc2)cc1O (configuration not stated) was MtTrpRS: -2.271%; Toxoplasma: 11.15%; ClpP1P2: -9.46%; CoaBC: 1.467%; Pks13 thioesterase: -11.28%.

Measurements from “University of Dundee, Small-Polar-MMV Screening Library” (2021), ChEMBL document CHEMBL3988442.